Values from PubChem BioAssay AID1259308 (NCATS, 2017).
Test: 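Genes whose loss raises luciferase production in HEK293 cells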 (primary screen). System: human HEK293 embryonic kidney cells stably expressing firefly luciferase (HEK-CMV-Luc2-Hygro). Reagents: single siRNA against human genes, 0.8 pmol siRNA per well. Timing: 72 h. Measurement: 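Reporter luminescence and viable-cell signal on separate replicate plates, given as percent of non-targeting control and median/MAD z-scores, plus per-cell luciferase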. Scale: total luciferase, z-score and total luciferase, % of control: higher = more reporter protein produced. Active means: 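Active when the median/MAD z-score for overall luciferase is greater than 3; a gene was taken forward for validation with new siRNAs if at least two of its three siRNAs passed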. Calls: active = raised luciferase; inactive = no rise.
Here is a random part of about 59,000 reagents. Over the whole deposit, about 1,510 (2.6%) were called active. 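Calls use total luciferase alone and ignore viability, so some active siRNAs may act by altering cell number.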 A number with no mark means an inactive call. The numbers tell different reagents against one gene apart. Further read-outs or replicates are left out here. Reagent sequences are not shown.

UBE2NL #1 — total luciferase, z-score: 2.11; total luciferase, % of control: 124
UBE2NL #2 — total luciferase, z-score: 1.14; total luciferase, % of control: 104
UBE2NL #3 — total luciferase, z-score: 1.37; total luciferase, % of control: 109
DIS3L2 #1 — total luciferase, z-score: -3; total luciferase, % of control: 22.2
DIS3L2 #2 — total luciferase, z-score: 0.248; total luciferase, % of control: 86.8
DIS3L2 #3 — total luciferase, z-score: -0.918; total luciferase, % of control: 63.6
PRPSAP2 #1 — total luciferase, z-score: -0.416; total luciferase, % of control: 73.6
PRPSAP2 #2 — total luciferase, z-score: -0.855; total luciferase, % of control: 64.9
PRPSAP2 #3 — total luciferase, z-score: 0.263; total luciferase, % of control: 87.1
SIPA1L3 #1 — total luciferase, z-score: -0.257; total luciferase, % of control: 76.8
SIPA1L3 #2 — total luciferase, z-score: -2.73; total luciferase, % of control: 27.6
SIPA1L3 #3 — total luciferase, z-score: -0.412; total luciferase, % of control: 73.7
SYN2 #1 — total luciferase, z-score: -0.422; total luciferase, % of control: 73.5
SYN2 #2 — total luciferase, z-score: 0.676; total luciferase, % of control: 95.3
SYN2 #3 — total luciferase, z-score: -1.49; total luciferase, % of control: 52.2
CD180 #1 — total luciferase, z-score: -0.765; total luciferase, % of control: 66.7
CD180 #2 — total luciferase, z-score: -0.383; total luciferase, % of control: 74.3
CD180 #3 — total luciferase, z-score: -0.495; total luciferase, % of control: 72
LOC644058 (retired record) #1 — total luciferase, z-score: -0.152; total luciferase, % of control: 78.9
LOC644058 (retired record) #2 — total luciferase, z-score: -0.687; total luciferase, % of control: 68.2
LOC644058 (retired record) #3 — total luciferase, z-score: -2.84; total luciferase, % of control: 25.5
PABPC1L #1 — total luciferase, z-score: 1.05; total luciferase, % of control: 103
PABPC1L #2 — total luciferase, z-score: -0.0735; total luciferase, % of control: 80.4
PABPC1L #3 — total luciferase, z-score: -0.234; total luciferase, % of control: 77.2
VDAC2 #1 — total luciferase, z-score: -0.578; total luciferase, % of control: 70.4
VDAC2 #2 — total luciferase, z-score: -0.158; total luciferase, % of control: 78.7
VDAC2 #3 — total luciferase, z-score: 1.14; total luciferase, % of control: 105
ANGPTL8 #1 — total luciferase, z-score: -0.444; total luciferase, % of control: 73
ANGPTL8 #2 — total luciferase, z-score: 0.172; total luciferase, % of control: 85.3
ANGPTL8 #3 — total luciferase, z-score: 1.18; total luciferase, % of control: 105
TMSB15B #1 — total luciferase, z-score: -0.29; total luciferase, % of control: 76.1
TMSB15B #2 — total luciferase, z-score: 1.51; total luciferase, % of control: 112
TMSB15B #3 — total luciferase, z-score: 2; total luciferase, % of control: 122

No new results follow: 4 of the entries above.
CD180 #3 — total luciferase, z-score: -0.495; total luciferase, % of control: 72
LOC644058 (retired record) #1 — total luciferase, z-score: -0.152; total luciferase, % of control: 78.9
LOC644058 (retired record) #2 — total luciferase, z-score: -0.687; total luciferase, % of control: 68.2
LOC644058 (retired record) #3 — total luciferase, z-score: -2.84; total luciferase, % of control: 25.5
